The experiment addresses USP10 (endogenous in human corneal fibroblasts) (human (endogenous in HCFs)) (UniProt Q14694). The experiment can be described thus: proximity ligation.

Chains of the proteins cited; added tags and fusions are not shown.
UniProt Q14694: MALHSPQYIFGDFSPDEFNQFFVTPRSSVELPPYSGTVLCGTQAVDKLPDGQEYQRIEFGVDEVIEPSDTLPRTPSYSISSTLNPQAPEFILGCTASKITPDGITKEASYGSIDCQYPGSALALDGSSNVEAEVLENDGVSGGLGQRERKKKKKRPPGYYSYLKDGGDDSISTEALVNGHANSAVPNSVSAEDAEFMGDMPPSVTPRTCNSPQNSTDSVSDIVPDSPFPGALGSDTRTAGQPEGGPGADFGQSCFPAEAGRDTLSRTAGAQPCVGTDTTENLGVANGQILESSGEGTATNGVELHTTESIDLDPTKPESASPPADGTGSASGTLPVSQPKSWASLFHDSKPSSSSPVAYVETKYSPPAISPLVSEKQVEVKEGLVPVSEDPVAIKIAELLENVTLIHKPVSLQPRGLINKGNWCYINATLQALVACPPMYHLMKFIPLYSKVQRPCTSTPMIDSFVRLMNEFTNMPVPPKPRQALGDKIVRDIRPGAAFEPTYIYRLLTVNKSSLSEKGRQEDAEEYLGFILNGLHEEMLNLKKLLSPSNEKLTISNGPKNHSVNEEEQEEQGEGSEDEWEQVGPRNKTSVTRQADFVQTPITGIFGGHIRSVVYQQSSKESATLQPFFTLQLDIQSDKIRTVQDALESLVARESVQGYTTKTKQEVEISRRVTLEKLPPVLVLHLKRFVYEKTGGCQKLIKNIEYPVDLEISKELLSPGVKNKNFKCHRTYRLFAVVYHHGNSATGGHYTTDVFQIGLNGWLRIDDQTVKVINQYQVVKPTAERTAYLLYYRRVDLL
UniProt Q9Y4D1: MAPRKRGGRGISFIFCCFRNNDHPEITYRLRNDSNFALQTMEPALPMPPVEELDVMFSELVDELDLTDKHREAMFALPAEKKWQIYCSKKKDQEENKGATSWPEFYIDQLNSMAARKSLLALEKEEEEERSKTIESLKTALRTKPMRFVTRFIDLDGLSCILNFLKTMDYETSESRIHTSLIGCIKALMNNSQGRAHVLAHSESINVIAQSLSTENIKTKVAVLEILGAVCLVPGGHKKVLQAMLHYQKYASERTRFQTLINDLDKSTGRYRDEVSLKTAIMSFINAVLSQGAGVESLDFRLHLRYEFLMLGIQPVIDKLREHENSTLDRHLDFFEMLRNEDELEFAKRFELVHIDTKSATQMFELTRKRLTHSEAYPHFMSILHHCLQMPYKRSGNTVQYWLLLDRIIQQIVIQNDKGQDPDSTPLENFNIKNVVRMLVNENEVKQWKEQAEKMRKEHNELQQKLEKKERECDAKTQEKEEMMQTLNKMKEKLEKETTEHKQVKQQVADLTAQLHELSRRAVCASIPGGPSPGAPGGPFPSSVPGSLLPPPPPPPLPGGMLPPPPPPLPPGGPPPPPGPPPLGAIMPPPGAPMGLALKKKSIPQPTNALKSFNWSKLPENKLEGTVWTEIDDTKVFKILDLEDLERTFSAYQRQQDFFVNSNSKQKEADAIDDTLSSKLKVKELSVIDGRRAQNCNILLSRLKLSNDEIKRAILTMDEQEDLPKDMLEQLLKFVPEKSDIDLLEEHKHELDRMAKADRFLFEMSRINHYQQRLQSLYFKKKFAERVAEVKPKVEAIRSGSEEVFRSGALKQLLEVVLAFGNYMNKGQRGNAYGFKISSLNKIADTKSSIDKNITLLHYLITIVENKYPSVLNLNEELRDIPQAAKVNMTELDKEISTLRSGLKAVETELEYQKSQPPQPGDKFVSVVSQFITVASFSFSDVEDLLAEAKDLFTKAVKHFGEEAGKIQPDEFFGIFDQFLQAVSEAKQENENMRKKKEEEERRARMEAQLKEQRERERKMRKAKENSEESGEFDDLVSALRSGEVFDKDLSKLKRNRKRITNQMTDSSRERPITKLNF

No constants are given. Whether binding was seen depends on the method and setting. Binding seen in cells or lysates may run through a third protein. Some binding calls cover weakened binding; strength is not graded here.

Regarding “Daam1 (endogenous in human corneal fibroblasts) (from UniProt Q9Y4D1 1-1078)”, the binding entry is “binds”.

(Values after publication doi:10.1101/2022.02.14.480271.)
